Assay results from patent US7981875B2, “2″ oxo-voruscharin and derivatives thereof” (priority 2002, dated 2011).

Test system: Hs683
Assay: MTT test, overall cell growth
Type: cell-based, human
Details: cell line Hs683
Description: In order to characterize the in vitro activities of the compounds according to the invention, MTT tests were carried out. The MTT test, which is a well-known test in the art, is an indirect technique that rapidly measures, i.e. within 5 days, the effect of a given product on the overall cell growth. This test measures the number of metabolically active living cells that are able to transform the MTT product (3-(4,5-dimethylthiazol-2-yl)-2,5 diphenyl tetrazolium bromide), having a yellowish color, to the blue product formazan dye by mitochondrial reduction. The amount of formazan obtained at the end of the experiment is measured with a spectrophotometer and is directly proportional to the number of living cells. Determination of the optical density enables a quantitative measurement of the effect of the investigated compounds as compared to the control condition (untreated cells) and to compare it to other reference compound. […]
After 72 hours of incubation at 37° C. with the compound (experimental conditions) or without the compound (control condition), the medium was replaced by 100 μl MTT at the concentration of 1 mg/ml dissolved in RPMI. […] The micro wells were shaken for 5 minutes and read on a spectrophotometer at the wavelengths of 570 nm corresponding to the maximum formazan absorbance wavelength, and of 630 nm, which is the background noise wavelength. […]

| SMILES | IC50 value lower than the IC50 value of compound B |
| --- | --- |
| C[C@@H]1CC2(N=CCS2)C2(O)O[C@@H]3C[C@]4(C=O)C5CC[C@]6(C)[C@@H](C7=CC(=O)OC7)CC[C@]6(O)[C@@H]5CC[C@H]4C[C@H]3O[C@@H]2O1 (some centres unmarked) [uscharin] | 1000 fold |
| CC1CC2(NC(=O)CS2)C2(O)OC3CC4(C=O)C(CCC5C4CCC4(C)C(C6=CC(=O)OC6)CCC54O)CC3OC2O1 (centres unmarked) [2″oxo-voruscharin, 2″ oxo-voruscharin] | 1000 fold |
